# Assay results from the M2OR odorant receptor database.
# Protein sequences, listed by entry. Tags and fused reporters are not part of them. Chains listed by the source or under a name are the forms on record and can include a tag or linker.
# UniProt Q7TRM0, as listed by the source: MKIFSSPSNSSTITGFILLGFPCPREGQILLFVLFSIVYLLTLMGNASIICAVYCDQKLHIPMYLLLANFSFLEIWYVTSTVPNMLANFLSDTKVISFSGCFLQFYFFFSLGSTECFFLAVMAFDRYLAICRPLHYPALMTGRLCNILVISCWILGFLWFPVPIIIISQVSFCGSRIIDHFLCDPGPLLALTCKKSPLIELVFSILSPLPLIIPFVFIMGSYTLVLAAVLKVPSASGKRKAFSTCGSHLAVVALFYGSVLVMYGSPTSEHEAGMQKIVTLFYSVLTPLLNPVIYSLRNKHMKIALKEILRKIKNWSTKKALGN
# UniProt Q7TRN9, as listed by the source: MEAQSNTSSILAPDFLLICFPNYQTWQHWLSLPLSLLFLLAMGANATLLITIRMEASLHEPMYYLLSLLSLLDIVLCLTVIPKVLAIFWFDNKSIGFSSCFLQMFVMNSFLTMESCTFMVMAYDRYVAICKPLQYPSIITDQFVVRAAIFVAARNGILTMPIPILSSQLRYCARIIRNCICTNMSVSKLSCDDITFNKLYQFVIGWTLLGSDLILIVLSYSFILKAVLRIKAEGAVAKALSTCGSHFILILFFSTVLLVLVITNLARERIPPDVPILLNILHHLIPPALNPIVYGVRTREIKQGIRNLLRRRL
# UniProt Q7TRR8, as listed by the source: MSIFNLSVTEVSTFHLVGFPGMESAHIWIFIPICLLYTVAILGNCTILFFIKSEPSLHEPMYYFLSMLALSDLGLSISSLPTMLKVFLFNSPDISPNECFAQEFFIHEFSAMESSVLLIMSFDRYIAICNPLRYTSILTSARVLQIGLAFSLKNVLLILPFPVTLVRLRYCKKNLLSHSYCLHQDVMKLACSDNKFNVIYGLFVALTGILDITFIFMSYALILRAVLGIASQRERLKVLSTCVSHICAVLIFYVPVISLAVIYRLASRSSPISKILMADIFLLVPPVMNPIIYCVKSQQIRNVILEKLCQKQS
# UniProt Q7TRR7, as listed by the source: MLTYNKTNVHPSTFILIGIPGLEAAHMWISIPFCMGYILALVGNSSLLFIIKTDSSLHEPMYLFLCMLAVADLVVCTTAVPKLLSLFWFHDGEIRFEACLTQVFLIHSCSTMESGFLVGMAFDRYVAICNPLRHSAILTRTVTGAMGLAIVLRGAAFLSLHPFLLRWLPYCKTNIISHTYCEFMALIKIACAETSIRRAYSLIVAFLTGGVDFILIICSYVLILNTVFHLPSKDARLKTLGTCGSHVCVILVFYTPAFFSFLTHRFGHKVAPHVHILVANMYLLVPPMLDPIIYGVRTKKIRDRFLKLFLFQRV
# UniProt Q7TRB8, as listed by the source: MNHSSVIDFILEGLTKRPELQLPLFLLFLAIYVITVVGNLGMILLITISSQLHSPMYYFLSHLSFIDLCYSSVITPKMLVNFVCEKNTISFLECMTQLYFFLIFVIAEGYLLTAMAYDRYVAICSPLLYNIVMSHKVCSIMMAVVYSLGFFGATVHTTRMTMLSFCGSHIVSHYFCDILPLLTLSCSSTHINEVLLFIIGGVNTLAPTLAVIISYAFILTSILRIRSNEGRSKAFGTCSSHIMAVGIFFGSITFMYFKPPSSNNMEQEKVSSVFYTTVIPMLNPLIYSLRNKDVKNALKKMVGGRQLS
# UniProt Q7TS17, as listed by the source: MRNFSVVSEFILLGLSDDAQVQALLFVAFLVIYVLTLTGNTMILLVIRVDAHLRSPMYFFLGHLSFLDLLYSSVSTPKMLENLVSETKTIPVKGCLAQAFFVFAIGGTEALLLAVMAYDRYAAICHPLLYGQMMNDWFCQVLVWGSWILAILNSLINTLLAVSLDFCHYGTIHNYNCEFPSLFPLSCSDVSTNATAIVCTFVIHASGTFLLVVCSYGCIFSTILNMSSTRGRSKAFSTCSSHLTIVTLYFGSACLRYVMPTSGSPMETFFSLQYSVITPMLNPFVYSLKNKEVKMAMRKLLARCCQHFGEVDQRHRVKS
# UniProt Q7TRX1, as listed by the source: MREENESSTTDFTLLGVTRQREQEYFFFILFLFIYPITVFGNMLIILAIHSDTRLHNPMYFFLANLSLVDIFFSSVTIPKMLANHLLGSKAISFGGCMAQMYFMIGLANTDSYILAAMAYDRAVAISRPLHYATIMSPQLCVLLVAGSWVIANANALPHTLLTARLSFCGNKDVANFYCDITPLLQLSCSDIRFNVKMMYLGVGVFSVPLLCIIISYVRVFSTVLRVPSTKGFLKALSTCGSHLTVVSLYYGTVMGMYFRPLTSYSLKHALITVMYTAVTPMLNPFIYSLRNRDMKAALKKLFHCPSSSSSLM
# This is a selection; strong and weak results do not stand in their true shares. Calls are pooled over several reports, among them a noisy single-well screen.
# Tests used:
# Settings in all cases: stereoisomer not certain
# UniProt Q7TRX0 = biological target: T1, UniProt Q7TRX0
# T1 sequence (whole entry): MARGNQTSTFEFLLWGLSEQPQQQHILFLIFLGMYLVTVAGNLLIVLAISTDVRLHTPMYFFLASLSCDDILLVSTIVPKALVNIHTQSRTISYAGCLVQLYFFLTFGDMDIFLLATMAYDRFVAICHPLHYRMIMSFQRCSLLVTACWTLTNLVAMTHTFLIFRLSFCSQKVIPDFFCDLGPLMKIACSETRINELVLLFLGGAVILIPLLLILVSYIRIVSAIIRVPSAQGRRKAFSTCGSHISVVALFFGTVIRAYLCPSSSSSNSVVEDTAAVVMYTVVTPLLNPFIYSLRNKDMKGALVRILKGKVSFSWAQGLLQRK
# Procedure, shortened: (§1)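 Whether a receptor–molecule pair is responsive (active) rests on the original authors' judgment that its measured signal was statistically different from baseline. Pairs without that judgment are non-responsive (inactive). Sources used varied assay methods, commonly transient luciferase assays in mammalian cell lines.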
# UniProt Q7TRE4 = biological target: T2, UniProt Q7TRE4
# T2 sequence (whole entry): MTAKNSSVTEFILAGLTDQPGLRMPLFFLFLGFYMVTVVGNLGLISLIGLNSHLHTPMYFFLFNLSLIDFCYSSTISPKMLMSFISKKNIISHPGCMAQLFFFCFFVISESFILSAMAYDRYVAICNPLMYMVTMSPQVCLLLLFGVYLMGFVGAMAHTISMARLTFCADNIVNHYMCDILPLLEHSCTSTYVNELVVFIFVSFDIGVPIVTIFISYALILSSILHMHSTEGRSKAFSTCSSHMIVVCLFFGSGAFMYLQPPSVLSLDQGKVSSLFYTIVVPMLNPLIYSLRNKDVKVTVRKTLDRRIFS
# Procedure, shortened: as §1
# UniProt Q7TRW1 = biological target: T3, UniProt Q7TRW1
# T3 sequence (whole entry): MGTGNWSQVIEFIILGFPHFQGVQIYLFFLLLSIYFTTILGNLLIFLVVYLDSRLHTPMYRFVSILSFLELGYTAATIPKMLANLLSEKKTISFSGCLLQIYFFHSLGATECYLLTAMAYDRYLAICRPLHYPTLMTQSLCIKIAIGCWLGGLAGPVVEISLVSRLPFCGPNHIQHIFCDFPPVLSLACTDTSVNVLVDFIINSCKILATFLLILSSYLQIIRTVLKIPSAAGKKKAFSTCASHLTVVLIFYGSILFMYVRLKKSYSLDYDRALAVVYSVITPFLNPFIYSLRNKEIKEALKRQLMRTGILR
# Procedure, shortened: as §1
# UniProt Q7TRM0 = biological target: UniProt Q7TRM0
# Procedure, shortened: as §1
# UniProt Q7TRN9 = biological target: UniProt Q7TRN9
# Procedure, shortened: as §1
# UniProt Q7TRR8 = biological target: UniProt Q7TRR8
# Procedure, shortened: as §1
# UniProt Q7TRR7 = biological target: UniProt Q7TRR7
# Procedure, shortened: as §1
# UniProt Q7TRB8 = biological target: UniProt Q7TRB8
# Procedure, shortened: as §1
# UniProt Q7TS17 = biological target: UniProt Q7TS17
# Procedure, shortened: as §1
# UniProt Q7TRX1 = biological target: UniProt Q7TRX1
# Procedure, shortened: as §1
# 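Further: active if original authors judged signal statistically different from baseline.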
structure (smiles),measurement,setting,value
CC(C)CC(=O)O,odorant receptor agonist call,UniProt Q7TRX0,inactive
CCCCCCCCCC=O,odorant receptor agonist call,UniProt Q7TRE4,inactive
same,odorant receptor agonist call,UniProt Q7TRW1,inactive
same,odorant receptor agonist call,UniProt Q7TRX0,inactive
CCCCO,odorant receptor agonist call,UniProt Q7TRX0,inactive
C=CCc1ccc(OC)c(OC)c1,odorant receptor agonist call,UniProt Q7TRX0,inactive
CCCCCC(=O)O,odorant receptor agonist call,UniProt Q7TRE4,inactive
same,odorant receptor agonist call,UniProt Q7TRM0,inactive
same,odorant receptor agonist call,UniProt Q7TRN9,inactive
same,odorant receptor agonist call,UniProt Q7TRR8,inactive
same,odorant receptor agonist call,UniProt Q7TRW1,inactive
same,odorant receptor agonist call,UniProt Q7TRX0,inactive
CC(C)(O)CCCC1=CCC(C=O)CC1 (stereo unspecified),odorant receptor agonist call,UniProt Q7TRE4,inactive
same,odorant receptor agonist call,UniProt Q7TRW1,inactive
same,odorant receptor agonist call,UniProt Q7TRX0,inactive
CC(C)=CCCC(C)=CC=O,odorant receptor agonist call,UniProt Q7TRR7,active
same,odorant receptor agonist call,UniProt Q7TRX0,inactive
CCCC(=O)O,odorant receptor agonist call,UniProt Q7TRM0,inactive
same,odorant receptor agonist call,UniProt Q7TRN9,inactive
same,odorant receptor agonist call,UniProt Q7TRR8,inactive
CC(=O)C(C)=O,odorant receptor agonist call,UniProt Q7TRX0,inactive
CCCCCOC(C)=O,odorant receptor agonist call,UniProt Q7TRX0,inactive
CC1COCc2cc3c(cc21)C(C)(C)C(C)C3(C)C (stereo unspecified),odorant receptor agonist call,UniProt Q7TRX0,inactive
O=C1CCCCCCCCCCCCCCO1,odorant receptor agonist call,UniProt Q7TRX0,inactive
C=CCc1ccc(O)c(OC)c1,odorant receptor agonist call,UniProt Q7TRX0,inactive
CCCCCC(C)=O,odorant receptor agonist call,UniProt Q7TRE4,inactive
same,odorant receptor agonist call,UniProt Q7TRW1,inactive
same,odorant receptor agonist call,UniProt Q7TRX0,inactive
CC(C)C=O,odorant receptor agonist call,UniProt Q7TRX0,inactive
COC(=O)c1ccccc1O,odorant receptor agonist call,UniProt Q7TRX0,inactive
COc1cc(C=O)ccc1O,odorant receptor agonist call,UniProt Q7TRX0,inactive
COc1ccccc1O,odorant receptor agonist call,UniProt Q7TRX0,inactive
c1cnccn1,odorant receptor agonist call,UniProt Q7TRX0,inactive
CCCCCCCC=O,odorant receptor agonist call,UniProt Q7TRE4,inactive
same,odorant receptor agonist call,UniProt Q7TRW1,inactive
same,odorant receptor agonist call,UniProt Q7TRX0,inactive
CC(=O)OC1CC2CCC1(C)C2(C)C (stereo unspecified),odorant receptor agonist call,UniProt Q7TRX0,inactive
CC12CCC(CC1)C(C)(C)O2,odorant receptor agonist call,UniProt Q7TRX0,inactive
CC(=O)c1ccccc1,odorant receptor agonist call,UniProt Q7TRB8,inactive
same,odorant receptor agonist call,UniProt Q7TRE4,active
same,odorant receptor agonist call,UniProt Q7TRW1,active
same,odorant receptor agonist call,UniProt Q7TRX0,inactive
same,odorant receptor agonist call,UniProt Q7TS17,inactive
C=C(C)C1CC=C(C)C(=O)C1 (stereo unspecified),odorant receptor agonist call,UniProt Q7TRB8,inactive
same,odorant receptor agonist call,UniProt Q7TRE4,inactive
same,odorant receptor agonist call,UniProt Q7TRW1,inactive
same,odorant receptor agonist call,UniProt Q7TRX0,inactive
same,odorant receptor agonist call,UniProt Q7TRX1,active
same,odorant receptor agonist call,UniProt Q7TS17,inactive
CC12CCC(C1)C(C)(C)C2=O (stereo unspecified),odorant receptor agonist call,UniProt Q7TRE4,inactive
same,odorant receptor agonist call,UniProt Q7TRW1,inactive
O=C1CCCCC1,odorant receptor agonist call,UniProt Q7TRE4,inactive
same,odorant receptor agonist call,UniProt Q7TRW1,inactive
CCCCCCC=O,odorant receptor agonist call,UniProt Q7TRE4,inactive
same,odorant receptor agonist call,UniProt Q7TRW1,inactive
same,odorant receptor agonist call,UniProt Q7TRX0,inactive
CCCCCCCCC=O,odorant receptor agonist call,UniProt Q7TRE4,inactive
same,odorant receptor agonist call,UniProt Q7TRR7,inactive
same,odorant receptor agonist call,UniProt Q7TRW1,inactive
same,odorant receptor agonist call,UniProt Q7TRX0,inactive
C=CC(C)(O)CCC=C(C)C (stereo unspecified),odorant receptor agonist call,UniProt Q7TRX0,inactive

# No new results follow: an excerpt of the list.
structure (smiles),measurement,setting,value
c1cnccn1,odorant receptor agonist call,UniProt Q7TRX0,inactive
CCCCCCCC=O,odorant receptor agonist call,UniProt Q7TRE4,inactive
same,odorant receptor agonist call,UniProt Q7TRW1,inactive
